Source: patent US20030170807A1 (Johns Hopkins, published 2003)
These are yes or no findings as the source states them, for the method shown. Binding seen in cells or lysates may run through a third protein. Binding can be weak; no strength is given. Tags and fused reporters may be left off the sequences shown.

Biological target: T1, myc-tagged carboxy-terminal 347 amino acids of GKAP-3 expressed in HEK293 cells (rat) (UniProt P97838)
T1 sequence (looked up): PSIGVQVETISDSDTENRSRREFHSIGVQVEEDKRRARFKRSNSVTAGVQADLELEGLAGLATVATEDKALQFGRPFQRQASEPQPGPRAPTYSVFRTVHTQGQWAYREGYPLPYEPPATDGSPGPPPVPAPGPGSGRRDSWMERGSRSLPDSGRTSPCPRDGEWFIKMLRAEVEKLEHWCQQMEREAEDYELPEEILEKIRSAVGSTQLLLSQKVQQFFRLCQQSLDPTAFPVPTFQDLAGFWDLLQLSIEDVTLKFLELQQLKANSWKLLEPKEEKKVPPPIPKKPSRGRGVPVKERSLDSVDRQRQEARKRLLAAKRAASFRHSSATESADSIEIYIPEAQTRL
Experiment: GST pull-down from HEK293 lysate

GST fusion of Shank3 PDZ domain (residues 559-673)
binding: binds
